Earlier results in patent US20210163888A1, “INDUCTION OF MYELINATING OLIGODENDROCYTES IN HUMAN CORTICAL SPHEROIDS” (Case Western Reserve University, priority 2018, published 2021).
Where a name gives a salt, the structure may show the parent alone.

Test system: rodent oligodendrocyte generation and myelination
Conditions: in vitro and in vivo; cited from earlier work

Structure (SMILES): CN1CCC[C@@H]1CCO[C@](C)(c1ccccc1)c1ccc(Cl)cc1 [clemastine, Clemastine fumarate]
- Stimulation of rodent oligodendrocyte generation and myelination: potent stimulators
